Sequences of proteins named here, by UniProt entry; tags and fusion partners are left off. A change or cut given only in a name is not applied to a line headed by its entry.
UniProt P48727: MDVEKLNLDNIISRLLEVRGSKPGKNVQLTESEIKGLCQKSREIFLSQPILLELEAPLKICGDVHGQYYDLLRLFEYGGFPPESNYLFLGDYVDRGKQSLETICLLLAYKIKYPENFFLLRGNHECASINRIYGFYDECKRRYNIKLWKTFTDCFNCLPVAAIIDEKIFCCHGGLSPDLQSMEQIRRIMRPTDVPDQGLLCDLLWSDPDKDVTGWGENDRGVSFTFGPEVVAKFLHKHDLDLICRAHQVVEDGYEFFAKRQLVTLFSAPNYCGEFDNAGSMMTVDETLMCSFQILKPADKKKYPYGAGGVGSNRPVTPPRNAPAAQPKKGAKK
UniProt Q27497: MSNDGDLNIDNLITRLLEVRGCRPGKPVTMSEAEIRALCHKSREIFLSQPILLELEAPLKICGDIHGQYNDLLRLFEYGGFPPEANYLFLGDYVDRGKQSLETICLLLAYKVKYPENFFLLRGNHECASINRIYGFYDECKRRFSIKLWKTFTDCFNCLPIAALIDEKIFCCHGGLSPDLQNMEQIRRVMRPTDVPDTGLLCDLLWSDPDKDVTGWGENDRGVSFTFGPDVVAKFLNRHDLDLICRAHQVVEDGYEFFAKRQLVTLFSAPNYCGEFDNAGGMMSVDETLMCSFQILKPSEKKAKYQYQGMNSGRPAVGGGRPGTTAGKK
UniProt Q95PZ1: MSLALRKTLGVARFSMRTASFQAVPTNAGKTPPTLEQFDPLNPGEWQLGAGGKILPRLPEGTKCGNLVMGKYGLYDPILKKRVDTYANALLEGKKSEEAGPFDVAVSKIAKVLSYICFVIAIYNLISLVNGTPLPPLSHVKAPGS

In publication doi:10.1101/2022.09.06.506874:

T1: GRAS-1::GFP (C. elegans) (UniProt Q93654)
T1 sequence: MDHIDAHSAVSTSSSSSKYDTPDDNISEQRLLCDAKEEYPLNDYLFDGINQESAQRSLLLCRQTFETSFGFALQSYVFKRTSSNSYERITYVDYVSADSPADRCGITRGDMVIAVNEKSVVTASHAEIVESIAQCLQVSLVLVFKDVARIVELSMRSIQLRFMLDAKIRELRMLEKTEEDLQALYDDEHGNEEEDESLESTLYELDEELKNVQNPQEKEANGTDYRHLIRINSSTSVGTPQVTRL

B1: GRP-1 (protein, UniProt P34512 1-393)
chain: MSSRYSERNGLSETEKMTLPKVRKRKAQLVDEIEALKNEVREVDEELDQVYYTHPKSKEYHKIVVNGRKKFNQDPWKALDWLASRNVVAKDPQALALWMKAGEGLSKSAIGEILGDNRPFALETLDRFTKEHKLHDVPIVPALRQYLFSFRLPGESQKINRILEKFAEVYANQNPSYGNADQAHTVAYSCIMVNTLLHNPNVKDKPSLEKYIEMNEQLLEKGAITIEQLTEVYESVSVTQFKIPDEVSTSGKGTVNDILLHAEREGWLFKQSSNPLFSGALSWKKRWFVLSENCLYYFDQMTDKEPKGIITLANVGIRKVEAPSRPFMFEIFSLSDGQIKACKTEQDGRLVEGRHSIYKICAVNDEDMRSWINAISRMMAPQQHLLARPKSTH
B2: IMA-2 (protein, UniProt P91276 1-531)
chain: MTLTETSLSHNAEEGKDEGGRLQQYKNLTKHEELRRRRTECSVEIRKQKGADMMMKRRNIVDVDEGGNSESELEEPEKISHQQSSTRLSNDEIRAILSNNPSEDDMVRCFESLRKSLSKTKNPPIDEVIHCGLLQALVQALSVENERVQYEAAWALTNIVSGSTEQTIAAVEAGVTIPLIHLSVHQSAQISEQALWAVANIAGDSSQLRDYVIKCHGVEALMHLMEKVDQLGDSHVRTIAWAFSNMCRHKNPHAPLEVLRVLSKGLVKLVQHTDRQVRQDACWAVSYLTDGPDEQIELARESGVLPHVVAFFKEAENLVAPALRTLGNVATGNDSLTQAVIDLGSLDEILPLMEKTRSSSIVKECCWLVSNIIAGTQKQIQAVLDANLLPVLINVLKSGDHKCQFEASWALSNLAQGGTNRQVVAMLEDNVVPALCQALLQTNTDMLNNTLETLYTLMLTVQNGYPHKVDILHDQVEENGGLDSLERLQESQSEQIYTQAYRIITQFFTDDDAGEKESHENADPQDNKWSF
B3: IMA-3 (protein, UniProt Q19969 1-514)
chain: MSSNRQAYYKNNAKEQIGKEKRNEEVVSIRKDKREEAISKRRNINTQIEDDSETSTTPPGPFDANLLRLTVAAAQSSDPAEQLTAVQQARKMLSTDRNPPIDDLIGSGILPVLVQCLSSTDPNLQFEAAWALTNIASGTSEQTQAVVNAGAVPLFLQLLSCGNLNVCEQSVWALGNIIGDGPHFRDYCLELGILQPLLQFINPEIPIGFLRNVTWVIVNLCRCKDPAPSPAVVRTILPALSLLIHHQDTNILIDTVWALSYLTDGGNEHIQMVIEAQVVTHLVPLLGHVDVKVQTAALRAVGNIVTGTDEQTQLVLDSGVLRFMPGLLAHYKEKINKEAVWFVSNITAGNQQQVQDVFDAGIMPMIIHLLDRGDFPTQKEAAWAISNVTISGRPNQVEQMVKLGVLRPFCAMLSCTDSQIIQVVLDGINNILKMAGEAAEQVTSEIEECGGLDKIENLQNHENEDIYKLAFEIIDNFFSSDDETGNVEGAQSSAFGGDVPPVPDAPNGGWNFGK
B4: PLK-1 (protein, UniProt P34331 1-648)
chain: MNRLPNIAKPPQKSNQRKEKAPPEVPALIADKDRGTYYEKGRFLGKGGFAHCYELTNRATREVVAGKVVPKSMLVKQYQRDKMTQEVQIHRELGHINIVKLFNFFEDNLNVYITLELCARRSLMELHKRRKAVTEPEARYFTHQIVDGVLYLHDLNIIHRDMKLGNLFLNDDLVVKIGDFGLATTVNGDERKKTLCGTPNYIAPEVLNKAGHSFEVDIWAVGCILYILLFGQPPFESKSLEETYSRIRHNNYTIPSIATQPAASLIRKMLDPEPTRRPTAKQVQRDGFFKSGFMPTRLPVSCLTMVPKFGGHETSMMEENVAPRGVDARSQRPLNGRAGLSALPQHIVSNNADRERAQQQAAEATFREPEDAYLSQLFHQVAVLLEQRIPGLEEEEAALDGYQSPECLPVFWISKWVDYSDKYGIGYQLCDNSVGVLFNDNSRIMLDQAGNELTYIEKSNKEHYFSMHSGEMPGLLNKKVTLLKYFRSYMNDHLVKAGEGSEQRAGDDLARLPTLRVWFRTKSAIVLHLSNGTVQINFFNDHVKMMMCPLMQAVTFIDQNKRMLTYKLNNLQRNGCPEKFLHRLKYAKTMIERLMSDANVVSQNPARQPDMPRSMAAARSASAGSRGPNQAASHLPQSASGSNIHPRR
B5: separase (protein, UniProt G5ED39 1-1262)
chain: MKITNKSVDKQHIEKLDELRKNVSCTVIGFAEQTAELQQEISELFIAEFGVNGPIDMNSLSKLARITSYYASSEYFQGLAKYQRTACKMFITWQTLRKEAMECRSKDREIFASIPAKLCFFYFYNGELCRAVVCLLDYIDLSDDTLAKEAALRWLMFLGETELIEKKLKTWKMDKSSKDMFSATEFAMNYLKKSEYRVEMLEKLMKLRDKVKSDPTRSFSRYELASYVSWLCSTLSNVPVGSALRECEFPDRVSHIQEAALKSDSLVRNRIPGLASSQFDNSVNASIWPFLDGHQEDSNYYVHIGSTIAWHFEMRRECALVNVTTAQTRDSMSAMILNLRVALKSASFFRVLQTTNTLAYYSSIIEEAGSEKNAKLMRVSCVNLLSSNPIIVRCSTPKETGATSRAHTPMAGSSVSEKQNTMRPDLADLLGDLELLDEQSFHPITRSCVCNVCTIYPLHSSFAAEYMMSYAIHSDFSQLSIKHFNDEFARIRERGMSSQVLMHRDSSVRPRPNIIQNEIFGMCVIRWLTKKLDSKESADEDTMEIFNNALKIVRYLQQRTTDMILAVTQLGRQLEFPMECNYSWMRPTIRKPRVKATIDCAVDILRAVSPFGRRPKVEKLEKNLQPFDKERFEKVRLAMRNEMNHYGHILYREWRCRLFAYVGRTSRDPWEAAYAWAESTQIGARNAVQSRLEKCKRGLVTMSGHDRFKTCVQSMPDEMTLVQIAMADDKTIYLVKLHADRDPIIMPLAHYSQAVELMDKFTFLLDEDEMIAKYPGDITPEEFWKRRKIVDGRMMTFVDEVQKHFLGVAASLLMPSGQLGPKAAELAIKIHKLSKGGLLLGEAKEMVYQSKLMDAKSWEALILRFCEMRTTDEKFKSFLPLMHRNSVEVMNQDDSIVTEKKYTYLVICPHLSQFCWERLPIFDEYPYVGRQVSIHSTFSQLEAMKSQEKQIPLQIDVQNAYYILDPDNNLGETQKRMVEYINKFNWEGTVGSAPKSNEISAALSQRDAFFFIGHGSGSSVMPRSVLKQSTCNAISLLMGCGSVRTIPQALGFDGKTAILDYAMAKCPLIVGCLWTVTDGEIDRFLIRMIDDCFEDSKSLTGIDKLRQLSEAMHEARSKARLKYLTGAAVVMYGLPVVAKQTTPFVEKDQRNLPQTPKTSARTSMRMETVPKTPKQEFVTSKSVPMTPIFSNNENKSPSRARMPSRVLKTPRQVKTFQEEDDEAPKRSTTRQLKPLVAPPIPATPTTRTTRSSARTPSRSRNL
B6: LMN-1 (protein, UniProt Q21443 1-566)
chain: MSSRKGTRSSRIVTLERSANSSLSNNGGGDDSFGSTLLETSRLQEKDHLTSLNSRLATYIDKVRQLEQENNRLQVQIRDIEVVEKKEKSNLADRFEAEKARLRRALDSAQDELAKYRIEYDAAKVEVKKLKPQVEKLERELAGAEEQALHAQSIADQSQAKQKTLQARNDKLVVENDDLKKQNITLRDTVEGLKKAVEDETLLRTAANNKIKALEEDLAFALQQHKGELEEVRHKRQVDMTTYAKQINDEYQSKLQDQIEEMRAQFKNNLHQNKTAFEDAYKNKLNAARERQEEAVSEAIHLRARVRDLETSSSGNASLIERLRSELDTLKRSFQEKLDDKDARIAELNQEIERMMSEFHDLLDVKIQLDAELKTYQALLEGEEERLNLTQEAPQNTSVHHVSFSSGGASAQRGVKRRRVVDVNGEDQDIDYLNRRSKLNKETVGPVGIDEVDEEGKWVRVANNSEEEQSIGGYKLVVKAGNKEASFQFSSRMKLAPHASATVWSADAGAVHHPPEVYVMKKQQWPIGDNPSARLEDSEGDTVSSITVEFSESSDPSDPADRCSIM

Biological target: T1, GRAS-1::GFP (C. elegans)
Test: affinity purification with mass spectrometry

Molecule	binding
GSP-2 (from UniProt P48727 1-333)	binds
FKB-6	no binding
GSP-1 (from UniProt Q27497 1-329)	binds
kinesin KLP-17	binds
KASH protein KDP-1 (from UniProt Q95PZ1)	binds
NPP-3	binds
NPP-13	binds

Biological target: T1, GRAS-1::GFP (C. elegans)
Test: affinity purification with mass spectrometry
Remark: another data set of the same source

Molecule	binding
B1	binds
B2	binds
B3	binds
B4	binds
B5	binds
B6	binds

These are yes or no findings as the source states them, for the method shown. Binding seen in cells or lysates may run through a third protein. A yes stands for co-enrichment or nearness to the bait. Other partners may have been found. For some of these results: A no says only that the protein was not detected with the bait. Sequences can lack the tags named with a protein.
